PubChem BioAssay AID2685 (National Center for Advancing Translational Sciences (NCATS), 2010)
Screen size: about 320,000 compounds; about 2,100 (0.66%) were called active. The inconclusive results got no clear call from the source; some entries with a clear call stand among them for comparison. The call rests on the fitted dose curve; in most records, active means well fitted inhibition curve with a large enough effect in the signal ratio, with a control signal flat (not every such curve was filed as active); inconclusive means small, poorly fitted or top-dose-only effect, or effect the other way, or a change in a side signal; inactive means flat fitted curve, though single readings scatter; the % refers to the signal ratio. Potencies beside an inconclusive call are fits to weak or partial responses and may not hold up.

Experiment: qHTS Assay for Lipid Storage Modulators in Drosophila S3 Cells
Settings: BODIPY lipid droplet fluorescence, 18-24 h, cells fed with added oleic acid; lipid storage change, negative = inhibition: at 46.1 µM (top of the series) unless noted
Summary of the method: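 Laser-scanning cytometry quantifies lipid droplet accumulation (500–530 nm total intensity; droplet/cell object ratio) in oleic acid-fed (400 uM added) Drosophila S3 cells treated with a concentration series. 20 uM Triacsin C defined 100% inhibition.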
On the % scale 0 is the no-effect control and ±100 the full control effect; potency means the concentration at half of the fitted maximal effect.

Lipid storage change, negative = inhibition, inconclusive:
COc1ccc(OC)c(NC(=O)CSc2nnc(NC(=O)c3ccco3)s2)c1 19.6%, CC(C)(C)C(=O)CN1C(=O)NC(C)(Cc2ccc3c(c2)OCO3)C1=O (stereo not drawn) 0.443%, O=C(O)/C=C/C(=O)Nc1cccc(C(F)(F)F)c1 15.9%, CCOc1cccc2sc(Cl)nc12 133%, Cn1ccsc1=NC(=O)c1ccccc1OC(F)F -46.6%, COc1ccc(C(=O)N/C(=C\c2ccccc2)C(=O)NC(CC(C)C)C(=O)O)cc1 (stereo not drawn) 11%, CC(=O)Nc1ccc(CN2CCC(CO)(CCOc3ccccc3)CC2)cc1 -16.2%, COc1ccc(NC(=O)CSCC(=O)N(C)Cc2ccc(Cl)c(Cl)c2)cc1 10.5%, O=C(N/C(=C/c1ccc(F)cc1)C(=O)N1CCCCC1)c1ccco1 5.04%, Nc1nnc(Cc2cccc(Br)c2)s1 19.7%, COc1ccccc1NC(=O)CSc1ncn[nH]1 22.1%, CCS(=O)(=O)C(=C(Nc1ccc(OC)cc1)Nc1ccc(OC)cc1)S(=O)(=O)CC -19.3%, CCc1ccc(OCCCOc2ccc(C=O)cc2)cc1 -33.7%, CCCCNC(=O)Nc1ccccc1CC 16.6%, CC(=O)Nc1ccc(S(=O)(=O)N2CCN=C2SCc2ccccc2C)cc1 -50.7%, CCC(=O)N1CCc2cc(S(=O)(=O)CCC(=O)NCCC3=CCCCC3)ccc21 -31.3%, O=C(COc1ccccc1Cl)NCc1ccco1 -26.5%, O=C(CNC(=O)Cc1ccccc1)NCC(=O)OCc1ccc(C(=O)c2ccccc2)cc1 -20.1%, CC12CCC(=O)N1C(C(=O)NNC(=O)COc1cccc(C(F)(F)F)c1)CS2 (stereo not drawn) 11.3%, CCCNC(=O)C1CCN(c2cc(-c3ccccc3)nc3ncnn23)CC1 -32%, CN(C(=O)/C=C/c1cnc2ccccc2c1)C1CCCCC1 15.5%, COc1cc(/C=N/O)cc(Br)c1OC 162%, COC(=O)Cc1c(C)c2c(O)cc(C)cc2oc1=O 3.2%, CC1=C(C(=O)OCC2CCCO2)C(c2ccc(C)cc2)C2=C(CCCC2=O)N1 (stereo not drawn) 13.5%, CNC(=O)c1cc(S(=O)(=O)Nc2ccc3c(c2)OCCO3)ccc1C 13.3%, CCCN(C(=O)C(C)Oc1cccc(Cl)c1)c1c(N)n(Cc2ccccc2)c(=O)[nH]c1=O (stereo not drawn) -1.18%, Cc1csc(NC(=O)c2cc(C)on2)n1 9.44%, Cc1ccccc1NC(=O)c1cn(-c2ccccc2)nc1-c1ccccc1 24.6%, O=C(c1ccco1)N1CCN(C(=O)c2[nH]ncc2[N+](=O)[O-])CC1 22.9%, Clc1ccc(C2=Nc3cc(Cl)ccc3OC2)cc1 -30.8% [at 0.00295 µM], CC(NC(=O)CSc1nnc(-c2cccc(S(=O)(=O)N3CCCCC3)c2)o1)C12CC3CC(CC(C3)C1)C2 (stereo not drawn) -32.3%, COc1cc(/C=C/c2nc(N)nc(-c3ccccc3O)n2)cc(OC)c1OC -23.9%, CCCC(=O)NCn1nnc(-c2ccc(Cl)cc2)n1 9.44%, COc1ccc(-c2cn[nH]c2-c2ccc(OCc3ccccc3)cc2O)cc1 -82.1%, C/C(=N\NC(=O)Nc1ccccc1)c1ccc2ccccc2c1 -3.62%

Lipid storage change, negative = inhibition, inactive:
Cn1c(CCNC(=O)c2ccc(Cl)cc2)n[nH]c1=S, COc1ccc(CCNC(=O)CN(Cc2ccc(Cl)cc2)S(C)(=O)=O)cc1, Cc1ccc(CS(=O)(=O)CCC(=O)NCc2ccc(F)cc2)cc1, CC(=O)Nc1ccc2c(c1)nc(CCN1CCN(c3ccccn3)CC1)n2C

Potency, active:
Cc1ccc2c(c1)c1nnc(SCC(=O)NC3CC3)nc1n2C 5.8 µM

Potency, inconclusive:
CN(CCO)S(=O)(=O)c1ccc2c(c1)C(=O)c1cc(S(=O)(=O)N(C)CCO)ccc1-2 1.46 µM [falling, partial curve, poor fit], O=C(NCCO)/C(=C\c1ccc2c(c1)OCO2)NC(=O)c1ccc(Br)cc1 20.6 µM [rising, partial curve], Cc1cc(OCc2nnc(SCC(=O)O)n2-c2ccccc2)ccc1Cl 32.6 µM [activator, single point], Cc1ccsc1C(=O)NC(C)c1ccccc1 (stereo not drawn) 1.46 µM [activator, full curve], CC/C(=N\Nc1nncc2ccccc12)c1ccc(F)cc1 0.651 µM [activator, single point], CCOC(=O)C1=C(C)S/C(=C\N(C)C)C1=O 4.61 µM [falling, single point], COc1ccc(NC(=O)COC(=O)CNS(=O)(=O)c2ccc(C)cc2)c(OC)c1 1.84 µM [falling, partial curve], Cc1ccc(S(=O)(=O)N2C(=O)CCC2C(=O)Nn2cnnc2)cc1 (stereo not drawn) 0.461 µM [falling, single point], CC(C)(C)C1CCc2onc(C(=O)NCc3ccc(F)cc3)c2C1 (stereo not drawn) 13 µM [falling, partial curve], COc1ccc(NC(=S)N2CCN(c3ccc([N+](=O)[O-])cc3)CC2)cc1OC 1.46 µM [falling, full curve], CCCCNC(=O)C1CCC(CNc2c(N3CCC(C)CC3)c(=O)c2=O)CC1 (stereo not drawn) 4.61 µM [falling, partial curve], O=C1N/C(=C\c2ccc(O)cc2)C(O)=C1C=NCc1ccccc1 29.1 µM [activator, single point], O=[N+]([O-])c1nn(-c2ccc3c(c2)OCCO3)n(O)c1=NCCC1=CCCCC1 20.6 µM [falling, single point]
